{"source": "PubChem BioAssay AID720505 (Drosophila RNAi Screening Center, 2013)", "assay": "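Knock-downs that reduce calcium influx once internal stores are emptied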 (primary screen)", "cell system": "Drosophila S2R+ cells", "knock-down reagent": "long dsRNA against Drosophila genes", "treatment": "thapsigargin (2 µM) in calcium-free buffer to empty internal stores, then 2 mM calcium added back", "read-out": "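Stores emptied by 2 µM thapsigargin without calcium, then 2 mM calcium re-added; fluo-4 fluorescence followed by FLIPR in 384-well plates, per-well averaged endpoint, raw; two screen passes, some wells retested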", "direction": "calcium signal and retest calcium signal: higher = more calcium entry after store depletion", "call rule": "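About 1500 genes called as lowering calcium entry, by varying amounts, judged against per-plate control wells with STIM1 as positive and Rho1 as negative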", "meaning of the calls": "active = called as lowering calcium entry; inactive = not called", "note": "The deposit covers about 20,000 reagents; this is an unselected part of those with a known target gene and a result. Over the whole deposit, about 2,100 (10%) got an active call. 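Raw plate signals without normalisation; calls rest on control-based scores that were not deposited; replicate 2 separates called from uncalled poorly.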 Names joined by + are all predicted targets of the reagent. Not stated in the record: the amount of reagent, the time to read-out."}
{"target":"Atg9 (Autophagy-related 9)","DRSC id":"DRSC06848","calcium signal, replicate 1":184,"calcium signal, replicate 2":92.7,"Outcome":"inactive"}
{"target":"NAT1","DRSC id":"DRSC06854","calcium signal, replicate 1":185,"calcium signal, replicate 2":175,"Outcome":"inactive"}
{"target":"smal (smoke alarm)","DRSC id":"DRSC02318","calcium signal, replicate 1":69.5,"calcium signal, replicate 2":202,"retest calcium signal, replicate 1":101,"retest calcium signal, replicate 2":92.4,"Outcome":"inactive"}
{"target":"smal (smoke alarm)","DRSC id":"DRSC02319","calcium signal, replicate 1":178,"calcium signal, replicate 2":85.6,"Outcome":"inactive"}
{"target":"smal (smoke alarm)","DRSC id":"DRSC02320","calcium signal, replicate 1":153,"calcium signal, replicate 2":85.3,"Outcome":"inactive"}
{"target":"smal (smoke alarm)","DRSC id":"DRSC02504","calcium signal, replicate 1":58.5,"calcium signal, replicate 2":171,"Outcome":"active"}
{"target":"smal (smoke alarm)","DRSC id":"DRSC22866","calcium signal, replicate 1":69.5,"calcium signal, replicate 2":67.8,"Outcome":"inactive"}
{"target":"PI31 (Proteasome inhibitor 31 kDa)","DRSC id":"DRSC07306","calcium signal, replicate 1":163,"calcium signal, replicate 2":236,"Outcome":"inactive"}
{"target":"Trf (TBP-related factor)","DRSC id":"DRSC03462","calcium signal, replicate 1":170,"calcium signal, replicate 2":178,"Outcome":"inactive"}
{"target":"lin-28","DRSC id":"DRSC10261","calcium signal, replicate 1":90.5,"calcium signal, replicate 2":75.2,"Outcome":"inactive"}
{"target":"CG3164","DRSC id":"DRSC00572","calcium signal, replicate 1":145,"calcium signal, replicate 2":106,"Outcome":"inactive"}
{"target":"CG8746","DRSC id":"DRSC07257","calcium signal, replicate 1":125,"calcium signal, replicate 2":184,"Outcome":"inactive"}
{"target":"BubR1 (Bub1-related kinase)","DRSC id":"DRSC04838","calcium signal, replicate 1":135,"calcium signal, replicate 2":175,"Outcome":"inactive"}
{"target":"CG1441","DRSC id":"DRSC06448","calcium signal, replicate 1":272,"calcium signal, replicate 2":157,"Outcome":"inactive"}
{"target":"CG32112","DRSC id":"DRSC09815","calcium signal, replicate 1":78.6,"calcium signal, replicate 2":84.6,"Outcome":"inactive"}
{"target":"CG6118","DRSC id":"DRSC15968","calcium signal, replicate 1":102,"calcium signal, replicate 2":85.5,"Outcome":"inactive"}
{"target":"CG6118","DRSC id":"DRSC23197","calcium signal, replicate 1":133,"calcium signal, replicate 2":187,"Outcome":"inactive"}
{"target":"trpl (transient receptor potential-like)","DRSC id":"DRSC06728","calcium signal, replicate 1":134,"calcium signal, replicate 2":210,"Outcome":"inactive"}
{"target":"trpl (transient receptor potential-like)","DRSC id":"DRSC06729","calcium signal, replicate 1":63.3,"calcium signal, replicate 2":120,"retest calcium signal, replicate 1":163,"retest calcium signal, replicate 2":65,"Outcome":"inactive"}
{"target":"RagA-B (Ras-related GTP binding A/B)","DRSC id":"DRSC14450","calcium signal, replicate 1":95.6,"calcium signal, replicate 2":134,"Outcome":"inactive"}
{"target":"fry (furry)","DRSC id":"DRSC10172","calcium signal, replicate 1":94.5,"calcium signal, replicate 2":117,"Outcome":"inactive"}
{"target":"fry (furry)","DRSC id":"DRSC10709","calcium signal, replicate 1":81.3,"calcium signal, replicate 2":107,"Outcome":"inactive"}
{"target":"fry (furry)","DRSC id":"DRSC10712","calcium signal, replicate 1":108,"calcium signal, replicate 2":94.7,"Outcome":"inactive"}
{"target":"COX7C (Cytochrome c oxidase subunit 7C)","DRSC id":"DRSC06831","calcium signal, replicate 1":168,"calcium signal, replicate 2":132,"retest calcium signal, replicate 1":85.8,"retest calcium signal, replicate 2":123,"Outcome":"inactive"}
{"target":"CG14823","DRSC id":"DRSC10194","calcium signal, replicate 1":169,"calcium signal, replicate 2":92.4,"Outcome":"inactive"}
{"target":"RYBP (Ring and YY1 Binding Protein)","DRSC id":"DRSC04117","calcium signal, replicate 1":124,"calcium signal, replicate 2":89,"Outcome":"inactive"}
{"target":"Gpo2 (Glycerophosphate oxidase 2)","DRSC id":"DRSC06822","calcium signal, replicate 1":128,"calcium signal, replicate 2":162,"Outcome":"inactive"}
{"target":"CG32642","DRSC id":"DRSC18959","Outcome":"inactive"}
{"target":"Muc26B (Mucin 26B)","DRSC id":"DRSC02322","calcium signal, replicate 1":67.9,"calcium signal, replicate 2":160,"Outcome":"active"}
{"target":"CG13742 + CNT1","DRSC id":"DRSC06413","calcium signal, replicate 1":83.2,"calcium signal, replicate 2":141,"Outcome":"inactive"}
{"target":"CG13575","DRSC id":"DRSC04211","calcium signal, replicate 1":159,"calcium signal, replicate 2":158,"Outcome":"inactive"}
{"target":"CG13575","DRSC id":"DRSC22851","calcium signal, replicate 1":104,"calcium signal, replicate 2":88.4,"Outcome":"inactive"}
{"target":"CarT (Carcinine transporter)","DRSC id":"DRSC03196","calcium signal, replicate 1":103,"calcium signal, replicate 2":87.7,"Outcome":"inactive"}
{"target":"CG3679","DRSC id":"DRSC19346","calcium signal, replicate 1":188,"calcium signal, replicate 2":121,"Outcome":"inactive"}
{"target":"CG14297","DRSC id":"DRSC14776","calcium signal, replicate 1":53.6,"calcium signal, replicate 2":121,"Outcome":"active"}

Hits (from the list above):
{"target":"smal (smoke alarm)","DRSC id":"DRSC02504","calcium signal, replicate 1":58.5,"calcium signal, replicate 2":171,"Outcome":"active"}
{"target":"Muc26B (Mucin 26B)","DRSC id":"DRSC02322","calcium signal, replicate 1":67.9,"calcium signal, replicate 2":160,"Outcome":"active"}
{"target":"CG14297","DRSC id":"DRSC14776","calcium signal, replicate 1":53.6,"calcium signal, replicate 2":121,"Outcome":"active"}
